A short description of the experiment: qHTS Assay to Find Inhibitors of Chronic Active B-Cell Receptor Signaling. As to conditions: ABC-DLBCL IkBa-CBG/CBR reporter, luminescence ratio (green luciferase fused to IkBa over red control in TMD8 lymphoma cells), 4 h. The procedure, abridged: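 TMD8 human ABC-DLBCL cells with doxycycline-inducible IκBα–green luciferase fusion and unfused red luciferase, in 0.5% FBS medium; compounds up to 46 uM, 4 h at 37C. Green/red luminescence ratio, filter-overlap corrected, fitted to concentration-response curves.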
For orientation: In qHTS, concentration-response curves come from the screen itself.

The mark [1] stands for this setting: measured here: CBR red luminescence, cell number.
Where [2] appears, read: measured here: IkBa-CBG green luminescence.

The list shows a part of the results. Shown are side measurements of this screen, not its main read-out; they come without a call. Most of these compounds were active or inconclusive in the main read-out, so they are no random draw. The note in brackets gives the kind of curve behind each potency; many fits are weak.

Usually AC50 stands for the concentration at which the activity in the assay is half-maximal. On to `CCOC(=O)NC(=O)/C(N=Nc1cccc(C(F)(F)F)c1)=C(\C)O`, for which the AC50 under setting [1] is 11.2 µM [rising, partial curve, poor fit].

As for `O=C(COC(=O)Cc1ccc(Cl)cc1)Nc1c(F)cccc1F`, under setting [1], the half-maximal activity concentration (AC50) is 35.5 µM [rising, single point].

`CN1CCN(C(=O)CSc2nc(-c3cccs3)cc(-c3cccs3)c2C#N)CC1`: the AC50 under setting [1] was 35.5 µM [falling, single point].

Consider `COc1cc2c(c(OC)c1OC)C(c1ccc(C)cc1)CC(=O)O2` (stereo not drawn), for which the AC50 was 20.6 µM [rising, partial curve] under setting [1] and 11.6 µM [falling, partial curve] under setting [2].

Turning to `COc1ccccc1/C=C/C(=O)Nc1cccnc1`, the half-maximal activity concentration (AC50) under setting [1] is 10 µM [falling, partial curve].

On to `O=C(CN1CCN(C(=O)C2CCCO2)CC1)Nc1c(Cl)cccc1Cl` (stereo not drawn), for which the AC50 under setting [1] was 35.5 µM [rising, single point].

With `O=C(COc1ccc2ccccc2c1)Nc1cccc(C(=O)Nc2ccccc2C(=O)O)c1`, the AC50 under setting [1] is 20.6 µM [falling, partial curve].

As for `CC(=O)c1c(C)[nH]c(C(=O)COC(=O)CCOc2ccc(C)cc2)c1C`, under setting [1], the AC50 is 29.1 µM [falling, single point].

With `COc1ccc(-c2cc3c(=O)n(CC(=O)NCc4ccc(C)cc4)ncn3n2)cc1`, under setting [1], the AC50 is 3.16 µM [rising, full curve, poor fit].

On to `O=C1NC(=Nc2ccccc2)S/C1=C\c1cccn1-c1ccccc1`, for which the AC50 under setting [1] was 0.146 µM [falling, full curve].

For the molecule `COc1ccc(/C=N/Nc2cn[nH]c(=O)c2Cl)cc1`, the AC50 is 3.55 µM [falling, partial curve, poor fit] under setting [1] and 17.8 µM [falling, partial curve, poor fit] under setting [2].

For the molecule `O=C(Nc1ccccc1)c1cnc[nH]1`, the half-maximal activity concentration (AC50) under setting [1] is 10 µM [falling, partial curve, poor fit].

For `O=C(OCC(=O)N1CCc2ccccc2C1)c1ccc(OC(F)F)cc1`, the AC50 under setting [1] was 7.31 µM [rising, partial curve, poor fit].

Take `O=C(NCC(Cl)c1ccc2ccccc2c1)c1c(F)cccc1F` (stereo not drawn): the AC50 under setting [1] was 3.16 µM [falling, full curve, poor fit].

Regarding `CN(CC(=O)Nc1ccc(F)c(F)c1F)C(=O)Cc1ccc2c(c1)OCCO2`, the half-maximal activity concentration (AC50) under setting [1] is 11.2 µM [falling, partial curve, poor fit].

For the molecule `O=C(COc1ccc(F)cc1Br)N1CCc2ccccc21`, under setting [1], the half-maximal activity concentration (AC50) was 2.59 µM [rising, full curve, poor fit].

As for `O=C(CCc1ccc(S(=O)(=O)N2CCOCC2)cc1)Nc1nc(COc2ccccc2)cs1`, under setting [1], the AC50 is 5.17 µM [falling, partial curve, poor fit].

With `O=C(NNC(=O)C1CC1)c1ccc(-c2ccccc2)cc1`, the AC50 under setting [1] is 25.9 µM [rising, single point].

On to `CCc1ccccc1Nc1nc(N)nc(COC(=O)CCS(=O)(=O)c2ccccc2)n1`, for which the AC50 under setting [1] is 16.4 µM [falling, single point].

With `COc1ccc(/C=C2\CCC(C3CCCC3)C2=O)c(OC)c1` (stereo not drawn), under setting [1], the AC50 is 0.355 µM [rising, full curve, poor fit].

`Cc1ccc(-c2nnc(-c3cccs3)o2)cc1`: the AC50 under setting [1] was 0.501 µM [rising, full curve].

`N#Cc1cc2c([nH]c1=S)CCCC2`: the half-maximal activity concentration (AC50) under setting [1] was 4.61 µM [falling, partial curve].

As for `O=C(c1cc(Cl)cc(Cl)c1)N1CCOCC1`, the concentration at half-maximal activity (AC50) under setting [1] is 14.6 µM [rising, partial curve, poor fit].

For `C=CCOc1c(Cl)cc(CNc2ccc(N(C)C)cc2)cc1OC`, the half-maximal activity concentration (AC50) under setting [1] is 14.1 µM [rising, partial curve] and the concentration at half-maximal activity (AC50) under setting [2] is 20 µM [falling, single point].

With `COc1ccc(C(=O)NC(=C(Cl)Cl)S(=O)(=O)c2ccc(C)cc2)cc1`, the AC50 under setting [1] is 1 µM [falling, full curve, poor fit].

On to `COc1cc2c(cc1NC(=O)CSc1cccc[n+]1[O-])oc1ccccc12`, for which the AC50 under setting [1] was 18.4 µM [falling, partial curve, poor fit].

In the case of `O=c1[nH]nc(CNc2cccc(C(F)(F)F)c2)c2ccccc12`, the AC50 under setting [1] was 1.41 µM [rising, partial curve, poor fit].

For the molecule `O=C(O)CCn1cc(/C=C\C(=O)c2ccc(Cl)cc2)c(-c2cccc(Br)c2)n1`, the AC50 under setting [1] was 14.6 µM [falling, partial curve, poor fit].

With `O=C1c2ccccc2-c2onc3ccc(NCCCn4ccnc4)c1c23`, the half-maximal activity concentration (AC50) under setting [1] is 29.1 µM [falling, single point].

As for `Nc1ccc2nc3c(=O)n(CCc4ccccc4)c(=O)[nH]c3nc2c1`, the AC50 under setting [1] is 11.2 µM [falling, partial curve].

Regarding `Cn1c(CCN2CCCCC2)nc2cc(NS(=O)(=O)c3ccccc3)ccc21`, under setting [1], the AC50 is 35.5 µM [falling, single point].

`CCOc1ccc(NC(=S)NC(=O)c2c(Br)cnn2C)c([N+](=O)[O-])c1`: the AC50 under setting [1] was 1.64 µM [rising, partial curve].

With `Cc1ccc(/C=N/NC(=O)Cc2ccc(O)cc2)s1`, under setting [1], the AC50 is 28.2 µM [falling, single point].

Take `Cc1c(C#N)c(=O)c(-[n+]2ccccc2)c([S-])n1-c1ccc(Cl)cc1`: under setting [1], the AC50 was 11.2 µM [rising, partial curve, poor fit].

Turning to `CCOCCn1c(CN(C)Cc2ccccc2)nc2c1c(=O)n(C)c(=O)n2C`, under setting [1], the AC50 is 8.91 µM [falling, partial curve, poor fit].

`CC(C)CCN1CC(O)=C(c2nc3ccccc3[nH]2)C1=N`: under setting [1], the AC50 was 6.51 µM [falling, single point].

On to `O=C(O)Cc1ccc(Nc2cnn(C34CC5CC(CC(CC(=O)O)(C5)C3)C4)c(=O)c2Cl)cc1`, for which, under setting [1], the AC50 was 0.1 µM [rising, full curve, poor fit].

On to `Cc1c(NC(=O)c2c(O)c3ccccc3n(C)c2=O)c(=O)n(-c2ccccc2)n1C`, for which, under setting [1], the concentration at half-maximal activity (AC50) was 12.6 µM [falling, partial curve].

On to `CC[C@@H](C)[C@H](CN[C@H](CNC)C(C)C)NC[C@@H](C)c1ccc(CC(C)C)cc1`, for which the AC50 under setting [1] was 7.94 µM [falling, partial curve, poor fit].

With `Cc1ccc(C(=O)NC2=NCCS2)cc1Cl`, the half-maximal activity concentration (AC50) under setting [1] is 1.26 µM [rising, full curve, poor fit].

On to `Cc1[nH]c2ccccc2c1/C=N/Nc1nc(Nc2ccc(F)cc2)nc(N2CCOCC2)n1`, for which the AC50 under setting [1] is 16.4 µM [falling, partial curve].

As to `O=C(N/N=C/c1ccc2ncccc2c1)c1ccco1`, the AC50 under setting [1] is 2 µM [falling, full curve].

Consider `O=C(O)c1ccn(COc2ccc(Br)cc2)n1`, for which the AC50 under setting [1] was 0.708 µM [rising, full curve, poor fit].

With `O=c1nccc(NCc2ccco2)[nH]1`, the AC50 under setting [1] is 3.16 µM [falling, partial curve, poor fit].

Turning to `Cc1occc1C(=O)NNC(=O)CN1C(=O)NC2(CCCCC2)C1=O`, the AC50 under setting [1] is 16.4 µM [rising, partial curve, poor fit].

Consider `CCOc1ccc(Oc2ccc(S(=O)(=O)N3CCOCC3)cc2NC(=O)CCNC(C)=O)cc1`, for which the AC50 under setting [1] is 32.6 µM [rising, partial curve, poor fit].

Turning to `O=C(NC(=S)Nc1ccc([N+](=O)[O-])cc1O)C1CCCCC1`, under setting [1], the concentration at half-maximal activity (AC50) is 3.16 µM [falling, full curve].

As for `C=C(C)/C=N/NC(=S)Nc1ccc(S(=O)(=O)N2CCOCC2)cc1`, the AC50 under setting [1] is 35.5 µM [falling, single point].

As for `Cc1nc2sc3c(O)cc(=O)[nH]c3c2c(C)c1C`, under setting [1], the half-maximal activity concentration (AC50) is 2.31 µM [falling, single point].

With `NC(=S)N/N=C/c1ccc(-c2ccccc2)o1`, the AC50 by setting is: under setting [1], 0.631 µM [rising, full curve, poor fit]; under setting [2], 31.6 µM [falling, single point].

For the molecule `N#CCSc1nc2sccc2c(=O)n1-c1ccccc1`, the AC50 reads like this: under setting [1], 1.58 µM [rising, full curve]; under setting [2], 2.24 µM [falling, partial curve, poor fit].

Regarding `Cc1sc2ncnc(NS(=O)(=O)c3ccc(Cl)cc3)c2c1C`, the half-maximal activity concentration (AC50) under setting [1] was 9.2 µM [falling, partial curve].

As for `O=C(Nc1ccc(Cc2ccncc2)cc1)c1ccc(Br)o1`, the AC50 under setting [1] was 1.46 µM [falling, full curve].

With `CCc1nc(SCCO)c2oc3ccccc3c2n1`, under setting [1], the concentration at half-maximal activity (AC50) was 35.5 µM [rising, partial curve, poor fit].

With `CC(=O)c1c(C)oc2c1C(=O)c1ccccc1C2=O`, under setting [1], the AC50 was 0.517 µM [rising, partial curve, poor fit].

`Cc1nc2cc(NC(=O)NCc3ccco3)ccc2n1C`: the AC50 under setting [1] was 18.4 µM [falling, partial curve].

In the case of `O=C(CSc1nc2[nH]ncc2c(=O)[nH]1)N1CCCCC1`, under setting [1], the concentration at half-maximal activity (AC50) is 0.00461 µM [falling, full curve, poor fit].

On to `CC1=CC2=NC(=O)/C(=C\c3cccn3CCOc3cc(C)ccc3C)C(=N)N2O1`, for which the half-maximal activity concentration (AC50) under setting [1] was 20.6 µM [falling, single point] and the concentration at half-maximal activity (AC50) under setting [2] was 29.1 µM [rising, partial curve, poor fit].

In the case of `CC(Sc1ccccc1)C(=O)N1CCN(S(=O)(=O)c2ccccc2C(F)(F)F)CC1` (stereo not drawn), the AC50 under setting [1] is 6.31 µM [rising, single point].

Take `Cc1cc(C(=O)COC(=O)c2ccc3c(c2)NC(=O)CS3)c(C)n1CCc1ccc(Cl)cc1`: the half-maximal activity concentration (AC50) under setting [1] is 28.2 µM [falling, partial curve, poor fit].

As for `CCNC(=O)CC1C(=O)N(c2ccccc2)C(=O)N1CCOC` (stereo not drawn), under setting [1], the AC50 was 6.31 µM [rising, single point].

Take `O=C(Cc1ccsc1)N1CCN(S(=O)(=O)c2cc(C(F)(F)F)cc(C(F)(F)F)c2)CC1`: under setting [1], the AC50 is 4.47 µM [falling, partial curve, poor fit].

These data come from PubChem BioAssay AID493014 (National Center for Advancing Translational Sciences (NCATS), 2011).
